Test results from patent publication US4703039A, “Method of producing biologically active molecules having extended life time” (New England Deaconess Hospital Corporation, priority 1985, dated 1987).
At least one peptide structure holds a part that was inferred or is arguable (an end, a ring closure or a residue). Ends that are not written are not given here.

Test system: ADP-modified human platelet receptor site for fibrinogen
Assay: Inhibition of 125I-fibrinogen binding to ADP-treated human platelets
Conditions: effect of changed hydrophobicity, FIG. 9
Experimental: FIG. 3 is a graph showing that the inhibitory effect of the same conjugate is concentration dependent. In this experiment, human platelets were treated with ADP and a variety of concentrations of the conjugate were added to affect inhibition of ^125 I-fibrinogen binding to the platelets. As the concentration of the conjugate increases, inhibition of binding goes from 0 to almost 100%, showing the effectiveness of the conjugate.

HHLTTTKTTGDV [peptide 8]
relative effectiveness in inhibiting fibrinogen binding: much more effective in inhibition than peptide 7
